From patent US20210047372A1 (Affibody, published 2021)

The chains behind the UniProt entries cited, without tags or fusion partners. Where a name states a change or a piece, a line headed by the entry shows the natural chain unless it says otherwise.
UniProt P01308: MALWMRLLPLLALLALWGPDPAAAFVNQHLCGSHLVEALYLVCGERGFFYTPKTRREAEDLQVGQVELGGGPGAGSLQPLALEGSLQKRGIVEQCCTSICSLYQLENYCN

B1: Y00263 (designed binder)
chain: MGSSHHHHHHGSSLAEAKEAAIAELKSKGVGAYQKSFIELAKSVEHVELLKEAILADLP
notes: Y00032 with D13K
B2: Y00264 (designed binder)
chain: B1 chain with K26D, K28Y
notes: Y00032 with K15Y
B3: Y00265 (designed binder)
chain: B1 chain with K26D, V30I
notes: Y00032 with V17I
B4: Y00266 (designed binder)
chain: B1 chain with K26D, G31S
notes: Y00032 with G18S
B5: Y00267 (designed binder)
chain: B1 chain with K26D, A32E
notes: Y00032 with A19E
B6: Y00268 (designed binder)
chain: B1 chain with K26D, K35I
notes: Y00032 with K22I
B7: Y00269 (designed binder)
chain: B1 chain with K26D, S36K
notes: Y00032 with S23K
B8: Y00270 (designed binder)
chain: B1 chain with K26D, K35I, S36K
notes: Y00032 with K22I + S23K
B9: Y00271 (designed binder)
chain: B1 chain with K26D, E39Q
notes: Y00032 with E26Q
B10: Y00272 (designed binder)
chain: B1 chain with K26D, A41G
notes: Y00032 with A28G
B11: Y00273 (designed binder)
chain: B1 chain with K26D, E45Q
notes: Y00032 with E32Q
B12: Y00274 (designed binder)
chain: B1 chain with K26D, E48Q
notes: Y00032 with E35Q
B13: Y00275 (designed binder)
chain: B1 chain with K26D, E52Q
notes: Y00032 with E39Q
B14: Y00276 (designed binder)
chain: B1 chain with K26D, A56K
notes: Y00032 with A43K

Target: T1, insulin (UniProt P01308 25-54; P01308 90-110, limits assumed)
T1 construct: Mature insulin has two chains (A and B) from one precursor; also called b-insulin
Assay: SPR, Biacore T200

| Binder | binding |
| --- | --- |
| B1 | binds |
| B2 | binds |
| B3 | binds |
| B4 | binds |
| B5 | binds |
| B6 | binds |
| B7 | binds |
| B8 | binds |
| B9 | binds |
| B10 | binds |
| B11 | binds |
| B12 | binds |
| B13 | binds |
| B14 | binds |

Where a chain is given by its changes, count along the chain named. In names and notes the source's numbering stands. Results are given in words; binding and its absence hold for the method and conditions named. Binding calls can cover weak binding; strength is not graded here.
